# PubChem BioAssay AID2685 (National Center for Advancing Translational Sciences (NCATS), 2010)
# The campaign covered roughly 320,000 compounds. About 2,100 (0.66%) were called active. Inconclusive results, whose numbers are uncertain, are shown with a selection of clear calls. Calls come from the whole dose curve; as a rule, active = well fitted inhibition curve with a large enough effect in the signal ratio, with a control signal flat (not every such curve was filed as active); inconclusive = small, poorly fitted or top-dose-only effect, or effect the other way, or a change in a side signal; inactive = flat fitted curve, though single readings scatter; the % refers to the signal ratio. A potency beside an inconclusive call is a rough fit, not a confirmed value.
# Test: qHTS Assay for Lipid Storage Modulators in Drosophila S3 Cells
# Conditions: BODIPY lipid droplet fluorescence, 18-24 h, cells fed with added oleic acid; lipid storage change, negative = inhibition: at 46.1 µM (top of the series) unless noted
# Procedure, shortened: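 Laser-scanning cytometry quantifies lipid droplet accumulation (500–530 nm total intensity; droplet/cell object ratio) in oleic acid-fed (400 uM added) Drosophila S3 cells treated with a concentration series. 20 uM Triacsin C defined 100% inhibition.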
# % is set by controls: 0 for no effect and ±100 for the full control effect; potency is the fitted concentration of half-maximal effect.
SMILES,"lipid storage change, negative = inhibition",Potency
COc1cc(SC)ccc1C(=O)N(Cc1ccccc1)c1ccccn1,inconclusive: -29.1%,–
COc1ccc(S(=O)(=O)NNC(=O)C2Cc3c(ccc4ccccc34)O2)cc1 (stereo unspecified),inconclusive: -57.9%,–
Cc1cc(N2CCN(C(=O)c3ccco3)CC2)n2ncc(-c3ccccc3)c2n1,–,"inconclusive: 0.0184 µM [activator, full curve, poor fit]"
CN(Cc1ccccc1)c1oc(-c2ccco2)nc1C#N,–,"inconclusive: 3.66 µM [activator, single point]"
CCOC(=O)C1CCCN(c2cc(NCCCO)c([N+](=O)[O-])c3nonc23)C1 (stereo unspecified),inconclusive: 35.7%,–
CCOC(=O)C1(Cc2ccccc2C(F)(F)F)CCN(Cc2ccon2)CC1,inconclusive: 23.8%,–
CCOc1ccc(C(=O)C(C)=O)c(OCC)c1,inconclusive: 0.499%,–
COc1ccc(CC(=O)OCC(=O)N(CC(C)C)c2c(N)n(Cc3ccccc3)c(=O)[nH]c2=O)cc1,inconclusive: 14.9%,–
CCN1CCN(Cc2nc3ccc([N+](=O)[O-])cc3c(=O)n2-c2ccc(OC)cc2OC)CC1,inconclusive: 10.8%,–
Cc1ccc(-c2nc3ccccc3s2)cc1NC(=O)c1cc(-n2cnnc2)ccc1Cl,inconclusive: -6.36%,–
O=C(CCc1ccccc1Cl)Nc1cccc(S(=O)(=O)N2CCCC2)c1,–,"inconclusive: 8.2 µM [falling, partial curve, poor fit]"
COC(=O)c1nn(-c2ccccc2)c(Sc2ccc(Cl)cc2)c1/C=N/O,inconclusive: 3.27%,–
CS(=O)(=O)N1CCN(CC(=O)NC2CCCCC2)CC1,–,"inconclusive: 29.1 µM [falling, single point]"
CC1CCCCC1NC(=O)COc1ccccc1C#N (stereo unspecified),inconclusive: -54.4%,–
COc1cc(CO)cc(Br)c1OCc1cccnc1,inactive: 17.8%,–
CC(=O)Nc1ccc(CC(=O)NCCC(c2ccccc2)c2ccccc2)cc1,inconclusive: 34.7%,–
N#Cc1ccc(S(=O)(=O)N2CCN(CC(=O)NCC3(N4CCOCC4)CCCCC3)CC2)cc1,inconclusive: 9.17%,–
COCCOC(=O)C1=C(C)NC(=O)NC1/C=C/c1ccccc1 (stereo unspecified),–,"inconclusive: 5.8 µM [rising, partial curve]"
COc1ccc(Cc2noc(-c3ccc(OC)c(OC)c3)n2)cc1OC,–,"inconclusive: 10.3 µM [activator, partial curve]"
Cc1cc(C)c(OCCNCc2ccccc2)c(C)c1,–,"inconclusive: 6.51 µM [activator, partial curve, poor fit]"
CC(C)CCN1C(=O)c2ccc(C(=O)N3CCCCC3)cc2C1=O,inconclusive: 30%,–
COc1cc(OC)c(C(=O)N2CCN(c3ccccn3)CC2)cc1OC,inconclusive: 161%,–
CCS(=O)(=O)N1CCN(C(=O)COc2ccc(-c3ccccc3)cc2)CC1,–,"inconclusive: 20.6 µM [activator, partial curve]"
CCOc1nc(NCCN2CCOCC2)nc(NC(C)C)n1,inconclusive: 4.2%,–
Cc1cc(NC(=O)CSc2nc(N)c(NC(=O)c3ccccc3F)c(=O)[nH]2)no1,inconclusive: 6.06%,–
O=C(Nc1ccc([N+](=O)[O-])cc1)C1CC12CCC2 (stereo unspecified),inconclusive: -24.6%,–

SMILES,"lipid storage change, negative = inhibition",Potency
CC(=O)Nc1ccc(S(=O)(=O)N2CCSC2c2ccc(Cl)cc2)cc1 (stereo unspecified),inconclusive: -16%,–
COC(=O)c1sccc1NC(=O)Nc1ccc(C)c(C)c1,inconclusive: -26.9%,–
CN1Cc2sc(N)c(C#N)c2CC1(C)C,inconclusive: 14.7%,–
O=C(c1ccco1)N1CCCC(c2nc3c(nnn3Cc3cccc(Cl)c3)c(=O)[nH]2)C1 (stereo unspecified),inconclusive: -100%,–
Cc1cc(Cl)c(OCCCNC2CCCC2)c(Br)c1,inconclusive: 31.4%,–
CN1C(=O)/C(=C/c2ccc(C(=O)NC3CCCC3)cc2)Oc2ccccc21,inconclusive: -20.7% [at 9.22 µM],–
C/C(=N\Nc1ncc(Cl)cc1Cl)c1ccc(OC(F)F)cc1,–,"inconclusive: 2.91 µM [activator, full curve, poor fit]"
Cc1cccc(C(=O)Nc2ccccc2SCC(=O)Nc2ccc(C)c(Cl)c2)c1,inconclusive: -28.1%,–
O=c1c(O[C@H]2O[C@@H](CO)[C@H](O)[C@@H](O)[C@@H]2O)c(-c2ccc(O)cc2)oc2cc(O)cc(O)c12,–,"inconclusive: 3.26 µM [activator, full curve]"
COc1cc(-c2nc3ccccn3c2/N=C/c2cc(OC)c(O)cc2Cl)ccc1O,inconclusive: 0.501%,–
COc1ccc(NC2CCCN(C(=O)c3cccnc3SC)C2)cc1OC (stereo unspecified),–,"inconclusive: 0.58 µM [activator, partial curve, poor fit]"
CCN(CCn1cccn1)C(=O)C1CCC(=O)N(CC2CCCCC2)C1 (stereo unspecified),–,"inconclusive: 0.58 µM [activator, single point]"
CC(C)N1CSC(=S)N(Cc2ccccc2)C1,–,"inconclusive: 32.6 µM [falling, single point]"
Cn1c(C(=O)N2CCC(C(=O)N3CCN(Cc4ccc5c(c4)OCO5)CC3)CC2)cc2sccc21,–,"inconclusive: 32.6 µM [falling, single point]"
CC(C)c1ccc(NC(=O)c2cc(S(=O)(=O)N3CCCC3)c[nH]2)cc1,–,"inconclusive: 0.326 µM [falling, full curve, poor fit]"
CCOC(=O)CN(c1cccc(C(C)=O)c1)S(C)(=O)=O,inconclusive: 6.45%,–
Cc1cc(N2CCN(c3ccc(F)cc3)CC2)n2ncnc2n1,inconclusive: 24.7%,–
Cc1ccc(C(C)C)c(OCC(=O)OCC(=O)c2c(N)n(C)c(=O)n(C)c2=O)c1,inconclusive: -14.2%,–
CC1Cc2nc(SCC(=O)N3CCOCC3)n(C)c(=O)c2S1 (stereo unspecified),inconclusive: 34.6%,–
Cc1ccc(NC(=O)c2sc3nc(CCl)[nH]c(=O)c3c2C)c(C)c1,–,"inconclusive: 5.17 µM [rising, single point]"
Cc1cc(C)nc(NS(=O)(=O)c2ccc(NC(=O)CSc3ncn[nH]3)cc2)n1,inconclusive: -16.8%,–
O=C(CCn1c(SCC(=O)c2ccccc2)nc2ccccc2c1=O)NCc1ccc(F)cc1,inconclusive: 13.5%,–
COc1ccc(CCNc2nnc(Sc3nnnn3-c3ccccc3)s2)cc1OC,–,"inconclusive: 29.1 µM [falling, single point]"
O=[N+]([O-])c1ccc(N2CCN(C(=S)c3cccc([N+](=O)[O-])c3)CC2)cc1,inconclusive: 11.7%,–
COc1ccc([N+](=O)[O-])cc1NC(=O)C(C)OC(=O)CN1C(=O)C2CC=CCC2C1=O (stereo unspecified),inconclusive,–
CC1C=CCC2C(=O)N(c3ccc(Cl)cc3O)C(=O)C12 (stereo unspecified),inconclusive: 1.6%,–

# Single records (already shown). Order of values: lipid storage change, negative = inhibition	Potency
# COc1cc(-c2nc3ccccn3c2/N=C/c2cc(OC)c(O)cc2Cl)ccc1O in the list: inconclusive: 0.501%	–
# CC1CCCCC1NC(=O)COc1ccccc1C#N (stereo unspecified) in the list: inconclusive: -54.4%	–
# CN(Cc1ccccc1)c1oc(-c2ccco2)nc1C#N in the list: –	inconclusive: 3.66 µM [activator, single point]
# CC(=O)Nc1ccc(CC(=O)NCCC(c2ccccc2)c2ccccc2)cc1 in the list: inconclusive: 34.7%	–

# Copied from above, two compounds:
SMILES,"lipid storage change, negative = inhibition",Potency
CN(Cc1ccccc1)c1oc(-c2ccco2)nc1C#N,–,"inconclusive: 3.66 µM [activator, single point]"
CCOC(=O)C1CCCN(c2cc(NCCCO)c([N+](=O)[O-])c3nonc23)C1 (stereo unspecified),inconclusive: 35.7%,–

# (continued)

SMILES,"lipid storage change, negative = inhibition",Potency
N#C/C(=C\c1ccc(O)c(O)c1)C(=O)Nc1ccccc1,inconclusive: -20.7%,–
Cc1ccccc1NC(=O)COc1nsnc1N1CCOCC1,inconclusive: 36.3%,–
CCn1c(CNC(=O)Cc2ccc(OC)cc2)nnc1SCC(=O)NC1CCCCC1,inconclusive: -14.9%,–
CC(=O)Nc1ccc(-c2nnc(SCc3ccccc3C#N)n2C)cc1,inconclusive: 83.8%,–
Cc1ccc(C)c(CSc2nnc(-c3cccnc3)o2)c1,inconclusive: 1.22%,–
C/C(=N\NC(=S)NC(C)C)c1ccc(C(C)(C)C)cc1,–,"inconclusive: 29.1 µM [falling, single point]"
O=C(O)c1cccn1Cc1ccccc1F,inconclusive: 11.1%,–
O=C(COC(=O)c1cccc(Br)c1)NCCc1ccc(F)cc1,–,"inconclusive: 11.6 µM [activator, partial curve]"
O=C(CCCN1C(=O)c2cccc3cccc(c23)C1=O)N1CCN(c2ncccn2)CC1,–,"inconclusive: 29.1 µM [falling, single point]"
Cc1ccc(NC2CCCN(C(=O)c3cn4cc(Cl)ccc4n3)C2)cc1C (stereo unspecified),inconclusive: -37.4%,–
O=C(NCC1CCCO1)c1ccc(CNS(=O)(=O)c2cccc(Cl)c2)cc1 (stereo unspecified),inconclusive: 1.62%,–
COc1ccc(NC(=O)c2cc3c(=O)n(C)c4ccccc4c3n2C)cc1Cl,inconclusive: 21.2%,–
O=C(CN1C(=O)C2C3C=CC(C3)C2C1=O)OCC(=O)c1ccccc1 (stereo unspecified),inconclusive: 32.3%,–
COCc1nnc(NS(=O)(=O)c2ccc(Cl)cc2)s1,inconclusive: 50.9%,–
COc1ccccc1NC(=O)Cn1cnc2c(oc3ccccc32)c1=O,–,"inconclusive: 23.1 µM [activator, single point]"
COC(=O)c1ccc(COc2ccccc2/C=N/Nc2cccc(C(=O)O)c2)cc1,inconclusive: 6.04%,–
O=C(COC(=O)c1ccc(S(=O)(=O)NCc2ccco2)cc1)Nc1ccccc1,–,"inconclusive: 20.6 µM [activator, partial curve]"
CCN(CC)C(=O)C1c2ccccc2Oc2ccccc21,inconclusive: -45.2%,–
CC(C)NC(=O)c1cccc(Br)c1,inconclusive: 52.8%,–
CCSC1=C(C#N)C(c2ccc(F)cc2)CC(=O)N1 (stereo unspecified),inconclusive: 48.6%,–
Cc1cccc(Cc2c(C)nc3c(C(=O)NCc4ccco4)cnn3c2C)c1,–,"inconclusive: 23.1 µM [falling, single point]"
O=C1c2ccccc2C(=O)C12OC2c1cccc2ccccc12 (stereo unspecified),–,"inconclusive: 29.1 µM [falling, single point]"
COc1cc(NS(=O)(=O)c2ccc(F)cc2)c(OC)cc1NC(=O)C1CC1,–,"inconclusive: 2.06 µM [activator, full curve, poor fit]"
Cc1cc(C(=O)O)ccc1NCc1cccnc1,inconclusive: 23.2%,–
